In the supplement of paper PMC10849652:
This is one part of the list.

Chains of the proteins cited; added tags and fusions are not shown. Lines headed by an entry give the natural chain unless they say otherwise; changes in a name come on top.
UniProt P10636, whole entry, looked up: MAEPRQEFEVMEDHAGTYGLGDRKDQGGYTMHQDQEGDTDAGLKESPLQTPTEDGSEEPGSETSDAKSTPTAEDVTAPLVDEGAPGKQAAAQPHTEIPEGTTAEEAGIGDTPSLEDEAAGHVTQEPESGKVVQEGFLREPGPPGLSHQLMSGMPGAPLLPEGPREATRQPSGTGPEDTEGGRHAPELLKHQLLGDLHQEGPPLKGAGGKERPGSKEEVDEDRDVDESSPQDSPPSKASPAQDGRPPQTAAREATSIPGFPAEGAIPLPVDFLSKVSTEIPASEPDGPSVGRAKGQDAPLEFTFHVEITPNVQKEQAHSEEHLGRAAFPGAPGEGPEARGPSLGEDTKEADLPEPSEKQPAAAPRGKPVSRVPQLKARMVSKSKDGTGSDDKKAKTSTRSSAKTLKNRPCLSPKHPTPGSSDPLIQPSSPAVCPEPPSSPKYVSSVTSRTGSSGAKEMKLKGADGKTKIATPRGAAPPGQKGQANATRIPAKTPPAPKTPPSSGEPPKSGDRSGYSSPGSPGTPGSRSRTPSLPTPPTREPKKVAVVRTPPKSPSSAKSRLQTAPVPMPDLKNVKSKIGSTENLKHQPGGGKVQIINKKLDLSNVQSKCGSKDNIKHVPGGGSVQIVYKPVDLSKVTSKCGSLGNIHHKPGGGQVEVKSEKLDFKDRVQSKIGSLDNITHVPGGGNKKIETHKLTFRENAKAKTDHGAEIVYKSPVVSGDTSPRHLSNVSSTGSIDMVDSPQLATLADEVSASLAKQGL
UniProt P46821: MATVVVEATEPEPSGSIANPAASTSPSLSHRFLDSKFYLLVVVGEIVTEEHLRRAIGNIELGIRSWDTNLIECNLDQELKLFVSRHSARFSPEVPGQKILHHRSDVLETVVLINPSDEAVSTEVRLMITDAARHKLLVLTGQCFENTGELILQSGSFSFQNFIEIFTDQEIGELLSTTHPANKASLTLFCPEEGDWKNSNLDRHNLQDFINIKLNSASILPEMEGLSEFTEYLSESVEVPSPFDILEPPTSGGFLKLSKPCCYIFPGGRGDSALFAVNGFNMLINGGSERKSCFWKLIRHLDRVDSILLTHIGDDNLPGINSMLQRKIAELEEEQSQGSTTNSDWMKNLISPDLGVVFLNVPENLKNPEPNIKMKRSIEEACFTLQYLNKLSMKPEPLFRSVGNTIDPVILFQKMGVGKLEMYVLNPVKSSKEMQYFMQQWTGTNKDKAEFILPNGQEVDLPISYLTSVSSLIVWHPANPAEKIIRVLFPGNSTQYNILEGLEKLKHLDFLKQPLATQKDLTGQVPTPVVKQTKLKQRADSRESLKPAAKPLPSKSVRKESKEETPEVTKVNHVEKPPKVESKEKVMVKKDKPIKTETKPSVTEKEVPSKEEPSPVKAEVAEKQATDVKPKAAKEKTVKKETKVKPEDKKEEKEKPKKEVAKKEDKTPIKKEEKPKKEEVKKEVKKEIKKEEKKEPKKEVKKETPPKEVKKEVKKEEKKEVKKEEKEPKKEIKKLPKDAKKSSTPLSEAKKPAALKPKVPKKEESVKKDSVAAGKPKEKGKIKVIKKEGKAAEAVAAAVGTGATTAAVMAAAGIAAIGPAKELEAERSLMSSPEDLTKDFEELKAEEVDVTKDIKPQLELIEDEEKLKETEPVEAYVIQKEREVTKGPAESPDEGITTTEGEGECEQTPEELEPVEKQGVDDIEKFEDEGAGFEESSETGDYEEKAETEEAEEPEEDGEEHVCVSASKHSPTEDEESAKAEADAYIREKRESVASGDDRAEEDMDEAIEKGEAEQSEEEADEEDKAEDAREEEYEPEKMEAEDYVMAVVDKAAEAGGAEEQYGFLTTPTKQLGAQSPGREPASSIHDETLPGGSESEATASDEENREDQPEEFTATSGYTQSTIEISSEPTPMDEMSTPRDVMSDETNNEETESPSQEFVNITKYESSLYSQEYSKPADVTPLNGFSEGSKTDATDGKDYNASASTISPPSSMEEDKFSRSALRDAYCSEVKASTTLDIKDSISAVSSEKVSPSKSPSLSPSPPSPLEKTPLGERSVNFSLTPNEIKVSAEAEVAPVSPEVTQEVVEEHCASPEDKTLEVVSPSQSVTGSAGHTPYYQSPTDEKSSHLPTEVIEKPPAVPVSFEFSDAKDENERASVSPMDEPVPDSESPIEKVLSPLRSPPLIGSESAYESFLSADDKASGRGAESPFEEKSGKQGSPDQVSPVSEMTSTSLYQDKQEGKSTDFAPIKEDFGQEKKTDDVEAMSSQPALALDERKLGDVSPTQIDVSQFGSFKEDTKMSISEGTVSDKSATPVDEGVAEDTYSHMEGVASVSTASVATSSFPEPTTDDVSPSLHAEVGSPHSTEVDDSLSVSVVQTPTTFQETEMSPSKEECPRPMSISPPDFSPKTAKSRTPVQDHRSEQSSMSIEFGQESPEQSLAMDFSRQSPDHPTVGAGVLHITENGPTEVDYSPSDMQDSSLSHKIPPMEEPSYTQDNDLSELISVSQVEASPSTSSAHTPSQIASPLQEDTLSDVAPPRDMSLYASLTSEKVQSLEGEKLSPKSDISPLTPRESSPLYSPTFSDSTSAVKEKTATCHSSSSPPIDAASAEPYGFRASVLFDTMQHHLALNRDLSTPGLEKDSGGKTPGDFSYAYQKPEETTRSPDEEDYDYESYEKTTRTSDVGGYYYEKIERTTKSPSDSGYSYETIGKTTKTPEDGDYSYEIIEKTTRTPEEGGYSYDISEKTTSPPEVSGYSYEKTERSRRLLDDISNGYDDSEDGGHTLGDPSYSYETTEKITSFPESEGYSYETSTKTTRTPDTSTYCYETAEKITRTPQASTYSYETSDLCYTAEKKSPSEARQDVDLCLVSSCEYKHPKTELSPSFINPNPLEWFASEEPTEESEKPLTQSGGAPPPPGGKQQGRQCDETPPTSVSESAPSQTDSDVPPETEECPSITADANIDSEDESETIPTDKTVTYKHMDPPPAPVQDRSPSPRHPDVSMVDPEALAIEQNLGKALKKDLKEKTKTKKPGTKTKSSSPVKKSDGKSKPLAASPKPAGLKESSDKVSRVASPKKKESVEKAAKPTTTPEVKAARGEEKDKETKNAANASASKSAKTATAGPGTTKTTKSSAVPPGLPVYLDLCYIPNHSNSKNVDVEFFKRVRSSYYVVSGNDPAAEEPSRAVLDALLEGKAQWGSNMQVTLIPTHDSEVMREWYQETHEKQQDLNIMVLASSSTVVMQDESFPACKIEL
UniProt O00462: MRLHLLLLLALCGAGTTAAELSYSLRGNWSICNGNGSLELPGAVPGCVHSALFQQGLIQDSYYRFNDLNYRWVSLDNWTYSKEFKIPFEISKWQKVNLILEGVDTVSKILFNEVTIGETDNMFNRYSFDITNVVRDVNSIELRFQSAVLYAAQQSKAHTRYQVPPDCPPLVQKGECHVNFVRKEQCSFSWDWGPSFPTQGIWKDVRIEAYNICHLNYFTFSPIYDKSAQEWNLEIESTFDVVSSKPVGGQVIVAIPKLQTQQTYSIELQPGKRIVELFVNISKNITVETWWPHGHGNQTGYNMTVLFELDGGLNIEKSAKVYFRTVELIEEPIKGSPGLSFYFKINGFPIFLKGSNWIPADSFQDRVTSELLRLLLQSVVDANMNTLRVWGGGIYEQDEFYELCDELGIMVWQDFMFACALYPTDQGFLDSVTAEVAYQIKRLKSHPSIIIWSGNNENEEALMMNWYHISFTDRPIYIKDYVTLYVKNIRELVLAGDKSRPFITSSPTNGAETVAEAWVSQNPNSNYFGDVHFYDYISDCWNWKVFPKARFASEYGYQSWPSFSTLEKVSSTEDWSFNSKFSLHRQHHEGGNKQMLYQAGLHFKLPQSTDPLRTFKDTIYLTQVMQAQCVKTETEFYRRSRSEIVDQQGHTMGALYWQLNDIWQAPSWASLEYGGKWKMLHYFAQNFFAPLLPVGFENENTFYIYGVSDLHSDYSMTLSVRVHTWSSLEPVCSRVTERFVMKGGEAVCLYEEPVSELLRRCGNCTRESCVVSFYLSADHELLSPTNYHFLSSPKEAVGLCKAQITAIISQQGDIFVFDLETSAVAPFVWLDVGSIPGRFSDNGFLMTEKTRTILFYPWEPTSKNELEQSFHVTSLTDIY
UniProt Q9NX47: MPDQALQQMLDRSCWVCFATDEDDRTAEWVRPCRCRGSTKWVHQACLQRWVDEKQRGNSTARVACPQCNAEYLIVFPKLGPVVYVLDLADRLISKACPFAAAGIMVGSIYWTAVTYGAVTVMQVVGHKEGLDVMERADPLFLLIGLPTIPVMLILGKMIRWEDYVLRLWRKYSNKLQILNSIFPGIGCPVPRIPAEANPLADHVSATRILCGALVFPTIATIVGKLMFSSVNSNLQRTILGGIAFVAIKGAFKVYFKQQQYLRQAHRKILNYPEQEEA
UniProt O43325: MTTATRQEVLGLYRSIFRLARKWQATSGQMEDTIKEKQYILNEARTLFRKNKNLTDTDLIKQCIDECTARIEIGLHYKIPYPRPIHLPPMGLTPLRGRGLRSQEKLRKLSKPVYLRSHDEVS
UniProt Q9Y6R4: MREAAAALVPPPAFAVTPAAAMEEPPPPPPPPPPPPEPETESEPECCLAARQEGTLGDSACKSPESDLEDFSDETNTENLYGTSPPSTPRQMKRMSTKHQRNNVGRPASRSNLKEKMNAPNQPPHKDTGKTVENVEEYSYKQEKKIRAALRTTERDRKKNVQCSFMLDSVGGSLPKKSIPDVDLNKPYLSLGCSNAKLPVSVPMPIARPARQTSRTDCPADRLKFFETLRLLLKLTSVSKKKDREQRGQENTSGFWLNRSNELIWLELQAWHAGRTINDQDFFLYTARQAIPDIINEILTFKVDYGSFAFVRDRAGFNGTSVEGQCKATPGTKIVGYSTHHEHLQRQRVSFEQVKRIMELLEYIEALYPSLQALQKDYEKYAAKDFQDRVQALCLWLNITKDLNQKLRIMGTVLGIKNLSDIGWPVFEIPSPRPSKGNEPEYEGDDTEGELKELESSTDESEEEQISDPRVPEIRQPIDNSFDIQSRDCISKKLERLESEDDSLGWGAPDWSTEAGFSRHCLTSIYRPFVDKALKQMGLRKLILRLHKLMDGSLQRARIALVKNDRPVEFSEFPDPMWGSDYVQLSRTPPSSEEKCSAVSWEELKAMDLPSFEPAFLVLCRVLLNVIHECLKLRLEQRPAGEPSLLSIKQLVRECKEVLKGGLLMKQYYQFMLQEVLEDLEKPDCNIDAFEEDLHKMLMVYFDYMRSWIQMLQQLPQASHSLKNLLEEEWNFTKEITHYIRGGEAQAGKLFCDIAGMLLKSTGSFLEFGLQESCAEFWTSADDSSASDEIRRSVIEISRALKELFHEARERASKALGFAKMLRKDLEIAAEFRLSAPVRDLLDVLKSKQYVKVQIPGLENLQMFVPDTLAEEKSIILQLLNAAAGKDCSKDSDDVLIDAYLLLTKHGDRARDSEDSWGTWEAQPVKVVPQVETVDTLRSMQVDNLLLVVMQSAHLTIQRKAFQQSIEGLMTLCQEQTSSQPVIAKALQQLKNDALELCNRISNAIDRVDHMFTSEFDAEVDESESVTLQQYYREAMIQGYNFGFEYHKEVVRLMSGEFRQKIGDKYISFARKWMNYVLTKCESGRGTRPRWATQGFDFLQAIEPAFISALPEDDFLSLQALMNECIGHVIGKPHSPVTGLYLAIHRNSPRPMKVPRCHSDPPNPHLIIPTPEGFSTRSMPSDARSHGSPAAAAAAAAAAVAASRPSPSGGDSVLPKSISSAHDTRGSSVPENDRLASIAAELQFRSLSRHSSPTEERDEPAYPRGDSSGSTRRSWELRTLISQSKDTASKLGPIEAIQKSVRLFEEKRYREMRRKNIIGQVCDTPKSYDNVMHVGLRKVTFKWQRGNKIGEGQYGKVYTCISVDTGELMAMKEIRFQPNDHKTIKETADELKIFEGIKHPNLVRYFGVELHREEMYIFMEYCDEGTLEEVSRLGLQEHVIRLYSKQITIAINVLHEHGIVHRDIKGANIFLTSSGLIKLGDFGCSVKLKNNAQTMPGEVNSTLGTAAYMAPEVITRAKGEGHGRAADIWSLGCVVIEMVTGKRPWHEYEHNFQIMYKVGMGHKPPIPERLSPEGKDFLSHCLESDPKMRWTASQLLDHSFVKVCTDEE
UniProt O95232: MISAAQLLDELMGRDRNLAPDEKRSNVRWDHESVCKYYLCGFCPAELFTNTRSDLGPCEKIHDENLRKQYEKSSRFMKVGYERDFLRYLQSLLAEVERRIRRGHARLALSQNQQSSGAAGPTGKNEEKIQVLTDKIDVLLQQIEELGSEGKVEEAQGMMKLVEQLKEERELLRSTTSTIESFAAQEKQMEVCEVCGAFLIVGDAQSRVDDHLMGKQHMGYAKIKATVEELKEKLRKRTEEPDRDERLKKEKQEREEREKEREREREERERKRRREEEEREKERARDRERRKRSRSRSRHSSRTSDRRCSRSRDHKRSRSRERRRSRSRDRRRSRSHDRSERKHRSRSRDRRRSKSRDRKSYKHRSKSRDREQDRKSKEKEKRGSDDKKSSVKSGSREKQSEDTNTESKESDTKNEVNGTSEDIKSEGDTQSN

Columns and labels:
Experiment in all cases: log2 fold change, soluble protein after heating vs DMSO (PISA); higher = thermal stabilisation; K562 lysate, 10 uM; active = over 0.2 and 3.5 SD of the protein, either way, in both replicates (recomputed)
[1] = compound: NCC(=O)Nc1ccc(-n2nc(C(F)(F)F)cc2-c2ccc3c(ccc4ccccc43)c2)cc1
Summary of the method: (§1)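 A 30 min treatment with 10 μM compound was applied to crude K562 extract at 1 mg/mL protein in PBS pH 7.4 with 1 mM MgCl2. Heating for 3 min spanned 48°C-58°C, after which aliquots were pooled, adjusted to 0.5% NP-40 at 4°C and spun at 21,000xg for 90 min. TMTpro 16plex LC-MS/MS of the supernatant, with channel sums equalised, gave values recorded as log-two fold change in thermal stability against solvent controls, from duplicates.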

[2] = compound: O=C(CCCCCCC(=O)Nc1ccccc1)NO [vorinostat]
Summary of the method: as §1

[3] = compound: O=C(O)c1ccc2c(c1)nc(Nc1cccc(Cl)c1)c1ccncc12 [silmitasertib]
Summary of the method: as §1

[4] = compound: O=C1NC(=O)C(c2cnc3ccccn23)=C1c1cn2c3c(cc(F)cc13)CN(C(=O)N1CCCCC1)CC2
Summary of the method: as §1

[5] = compound: c1cn2cc(-c3ccc4cn[nH]c4c3)nc(Nc3ccc(N4CCOCC4)cc3)c2n1 [entospletinib]
Summary of the method: as §1

Target | log2 fold change [1] | log2 fold change [2] | log2 fold change [3] | log2 fold change [4] | log2 fold change [5]
MAEA (UniProt Q7L5Y9) | inactive: -0.056 | inactive: -0.123 | inactive: 0.036 | inactive: 0.058 | inactive: 0.021
MAPT isoform 7 (UniProt P10636) | inactive: 0.118 | – | – | – | –
MAP1B (UniProt P46821) | inactive: 0.008 | inactive: 0.053 | inactive: -0.013 | inactive: -0.011 | inactive: 0
MAT2B (UniProt Q9NZL9) | inactive: 0.019 | inactive: 0.103 | inactive: 0.005 | inactive: 0.021 | inactive: 0.024
LUC7L2 (UniProt Q9Y383) | inactive: -0.004 | inactive: 0.116 | inactive: -0.038 | inactive: -0.047 | inactive: 0.01
MAPK9 (UniProt P45984) | inactive: -0.008 | inactive: -0.129 | inactive: 0.037 | inactive: -0.004 | inactive: 0
MANBA (UniProt O00462) | inactive: -0.044 | inactive: 0.089 | inactive: -0.011 | inactive: -0.015 | inactive: -0.025
MARCHF5 (UniProt Q9NX47) | inactive: 0.087 | inactive: 0.172 | inactive: -0.023 | inactive: -0.041 | inactive: -0.013
MAGEA9 (UniProt P43362) | inactive: 0.028 | inactive: 0.058 | inactive: 0.002 | inactive: 0.021 | inactive: 0.015
MAGED1 isoform 2 (UniProt Q9Y5V3) | inactive: 0.018 | inactive: 0.005 | inactive: -0.015 | inactive: 0.081 | –
MAGI1 isoform 6 (UniProt Q96QZ7) | inactive: 0.068 | inactive: 0.001 | inactive: -0.026 | inactive: 0.002 | inactive: -0.008
LYRM1 (UniProt O43325) | inactive: 0.164 | inactive: 0.3 | inactive: 0.096 | inactive: 0.006 | –
MAPKAPK3 (UniProt Q16644) | inactive: -0.063 | active: -0.43 | inactive: -0.001 | inactive: 0.162 | inactive: -0.049
MAPRE3 isoform 2 (UniProt Q9UPY8) | inactive: 0.113 | inactive: -0.113 | inactive: 0.123 | inactive: 0.086 | –
MAP4 (UniProt P27816) | inactive: 0.017 | inactive: 0.092 | inactive: -0.023 | inactive: 0.016 | inactive: 0.005
MAP3K4 (UniProt Q9Y6R4) | inactive: -0.025 | active: -0.524 | inactive: 0.229 | inactive: -0.025 | inactive: -0.045
MASTL (UniProt Q96GX5) | inactive: 0.169 | inactive: -0.206 | inactive: 0.029 | inactive: 0 | inactive: -0.025
MAP2K4 isoform 2 (UniProt P45985) | inactive: -0.119 | inactive: -0.216 | inactive: 0.023 | inactive: 0.013 | inactive: 0.028
LYZ (UniProt P61626) | inactive: -0.068 | inactive: 0.12 | inactive: -0.099 | inactive: 0.156 | inactive: 0.102
LUC7L3 (UniProt O95232) | inactive: 0.031 | inactive: 0.062 | inactive: -0.076 | inactive: -0.034 | inactive: 0.005
MARVELD1 (UniProt Q9BSK0) | inactive: 0.006 | inactive: 0.078 | inactive: -0.02 | – | –
MAPRE3 (UniProt Q9UPY8) | inactive: -0.056 | inactive: -0.077 | inactive: 0.036 | inactive: -0.012 | inactive: 0.021
MAPK1 (UniProt P28482) | inactive: -0.027 | inactive: 0.039 | inactive: 0.042 | inactive: -0.005 | inactive: -0.039
MAPK6 (UniProt Q16659) | inactive: -0.04 | inactive: -0.033 | inactive: 0.033 | inactive: 0.035 | inactive: 0.024
MAGED2 (UniProt Q9UNF1) | inactive: 0.13 | inactive: -0.03 | inactive: -0.007 | inactive: -0.035 | inactive: 0.011
MAN1A1 (UniProt P33908) | inactive: -0.062 | inactive: 0.064 | inactive: -0.012 | inactive: -0.028 | inactive: 0
MARCHF6 (UniProt O60337) | inactive: 0 | inactive: 0.057 | inactive: -0.037 | inactive: -0.06 | inactive: -0.028
LZIC isoform 2 (UniProt Q8WZA0) | inactive: -0.012 | inactive: 0.132 | inactive: -0.022 | inactive: 0.019 | inactive: 0.002
